Literature values as cited in patent US10653172B2, “Natural stilbenes as sweeteners or sweetener enhancer” (Analyticon Discovery GmbH, priority 2015, dated 2020).
Some of these results come from one statement about several compounds together. For at least one compound, name, drawing or mass did not settle the structure.

Conditions: often; times sweeter than sucrose; cited from earlier work

SMILES	sweetness relative to sucrose
C[C@H](CC[C@@H](O[C@@H]1O[C@H](CO[C@@H]2O[C@H](CO)[C@@H](O)[C@H](O)[C@H]2O)[C@@H](O)[C@H](O)[C@H]1O[C@@H]1O[C@H](CO)[C@@H](O)[C@H](O)[C@H]1O)C(C)(C)O)[C@H]1CC[C@@]2(C)[C@@H]3CC=C4[C@@H](CC[C@H](O[C@@H]5O[C@H](CO[C@@H]6O[C@H](CO)[C@@H](O)[C@H](O)[C@H]6O)[C@@H](O)[C@H](O)[C@H]5O)C4(C)C)[C@]3(C)[C@H](O)C[C@]12C [mogroside V]	> 100 ×
C[C@H](CC[C@@H](O[C@@H]1O[C@H](CO[C@@H]2O[C@H](CO)[C@@H](O)[C@H](O)[C@H]2O)[C@@H](O)[C@H](O)[C@H]1O[C@@H]1O[C@H](CO)[C@@H](O)[C@H](O)[C@H]1O)C(C)(C)O)[C@H]1CC[C@@]2(C)[C@@H]3CC=C4[C@@H](CC[C@H](O[C@@H]5O[C@H](CO)[C@@H](O[C@@H]6O[C@H](CO)[C@@H](O)[C@H](O)[C@H]6O)[C@H](O)[C@H]5O)C4(C)C)[C@]3(C)[C@H](O)C[C@]12C [iso-mogroside V]	> 100 ×
